Data taken from ChEMBL document CHEMBL3988442, “University of Dundee, Small-Polar-MMV Screening Library” (2021).

By UniProt entry, the sequences of proteins in these tests, tags left out.
UniProt E9BF75, entry or part of it: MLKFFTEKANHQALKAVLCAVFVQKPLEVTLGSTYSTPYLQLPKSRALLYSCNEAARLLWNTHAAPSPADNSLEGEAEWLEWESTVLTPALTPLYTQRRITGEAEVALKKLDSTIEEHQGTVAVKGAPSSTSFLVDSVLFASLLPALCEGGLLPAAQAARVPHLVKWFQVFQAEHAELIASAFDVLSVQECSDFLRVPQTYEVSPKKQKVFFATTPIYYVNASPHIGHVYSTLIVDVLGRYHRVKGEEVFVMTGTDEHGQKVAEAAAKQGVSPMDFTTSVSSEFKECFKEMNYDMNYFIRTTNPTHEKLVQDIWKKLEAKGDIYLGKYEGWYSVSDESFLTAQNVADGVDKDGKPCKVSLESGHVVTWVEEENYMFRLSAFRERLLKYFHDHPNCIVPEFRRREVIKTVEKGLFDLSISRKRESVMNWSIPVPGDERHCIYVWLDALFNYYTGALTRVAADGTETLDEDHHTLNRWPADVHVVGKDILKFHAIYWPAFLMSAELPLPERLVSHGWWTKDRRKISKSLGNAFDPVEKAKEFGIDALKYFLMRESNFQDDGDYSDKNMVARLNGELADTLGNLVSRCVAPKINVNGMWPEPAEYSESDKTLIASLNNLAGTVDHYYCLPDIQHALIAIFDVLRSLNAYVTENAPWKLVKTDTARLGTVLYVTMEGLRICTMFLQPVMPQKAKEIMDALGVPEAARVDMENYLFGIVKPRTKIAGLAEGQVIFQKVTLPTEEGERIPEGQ

Mtb heat-shock: 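Assay on Mycobacterium tuberculosis, filed only as a heat shock assay from Cornell; the read-out is not stated. The concentration is filed as 10 mM, unlikely as a test dose, so the dose is not known. Direction is inferred from retests: higher values go with stronger inhibition. Size under these conditions: about 69,000 compounds, about 930 of them at 50% or above in at least one test.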
Mtb growth Cornell: 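Whole-cell assay for inhibitors of Mycobacterium tuberculosis growth, labelled Cornell in the record; the read-out is not stated. The concentration is filed as 10 mM, unlikely as a test dose, so the dose is not known. The record gives no direction; compounds strong in two other growth screens of this library score well above the rest, so higher reads as stronger inhibition. Of about 53,000 compounds tested this way, about 900 (1.7%) reached 50% or more in at least one test.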
LdMetRS: 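Primary screen of methionyl-tRNA synthetase; the read-out is not stated. Target: Methionyl-tRNA synthetase (putative), Leishmania donovani (UniProt E9BF75). The test concentration is not given. The values are filed as inhibition. Of about 68,000 compounds tested this way, about 24 (0.035%) reached 50% or more in at least one test.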

All values are in %. The controls that fix the scale are not given in the record; negative values are as filed. Compounds were drawn at random from those tested, without regard to their results. A dash means the value is not listed here; it may have been measured.

Compound,Mtb heat-shock,Mtb growth Cornell,LdMetRS
N#Cc1cccc(NC(=O)C2CCCN2c2nccs2)c1 (centres undefined),7.382,-,21.2
Fc1ccc(Cn2ncc3c2CN(c2ncccn2)C3)cc1,-41.76,2.443,15.64
Cc1ccc2c(c1)C(NC(=O)N(C)C)CC21CCN(CC2CC2)CC1 (centres undefined),-,-,14.52
c1ccc(-c2nnc3n2CCN(c2nc(C4CC4)ns2)C3)cc1,1.919,-18.81,25.82
O=C(CCc1cccs1)N1CCCC(n2ccnc2)C1 (centres undefined),-3.617,-2.698,10.6
NC(=O)C(NC1CCN(Cc2ccc(F)cc2)CC1)c1ccccc1 (centres undefined),-149.1,-,9.97
CCSc1ccc(C(C)NC(=O)CCS(C)(=O)=O)cc1 (centres undefined),-6.276,-,20.72
Cc1nc(N(C)C)nc2c1COCC21CCN(C(=O)C2CC2)C1 (centres undefined),-9.272,-,10.38
Cc1cc(C2CCCN(C(=O)c3ccc(C)[nH]c3=O)C2)n[nH]1 (centres undefined),19.71,-2.662,1.307
Cc1cc2n(n1)CC(CNCc1cc(C)on1)CN2 (centres undefined),-5.701,-19.44,15.18
CCCOc1cccc(NS(=O)(=O)c2cc(C(=O)O)cs2)c1,-8.413,-7.501,0.5222
Fc1ccc(-c2cnc(CN3CCn4c(nnc4C4CC4)C3)o2)cc1,18.35,-,26.23
CCCNc1cc(-c2c[nH]nc2C2CCN(C(=O)C3CCC3)C2)ccn1 (centres undefined),-8.816,27.48,12.21
Cc1c(C)n(Cc2ccncc2)c2nc3c(c(N)c12)CCCCCC3,-18.9,-24.68,2.121
COCC(=O)N1CCN(Cc2nnc(C(C)(C)C)o2)CC1,-2.61,18.36,10.87
[H][C@]12CC[C@]([H])(CN(Cc3ccccn3)C1)N(CC(=O)Nc1ccn(C)n1)C2,-21.74,-1.978,-
O=C(c1nc(-c2ccc3cc[nH]c3c2)no1)N1CCCC1,-9.919,-,7.884
CC(C)NC(=O)[C@@H]1C[C@H]2OCC[C@H]2N(Cc2ccc3ccccc3n2)C1,-,-,4.478
Cn1ccc(C(=O)N2CCCC2c2cc[nH]n2)n1 (centres undefined),-23.06,14.33,11.05
CC(NC(=O)CNC(=O)OC(C)(C)C)c1ccc(Cl)s1 (centres undefined),8.72,3.078,8.933
Cc1nc(CN2CCO[C@H]3[C@@H](Oc4ccccn4)CC[C@@H]32)cs1,-,-,8.125
Cc1nc([C@H]2C[C@H]3CN(C(=O)c4cc(C)c(C)s4)CC[C@@H]3O2)no1,-,-,4.839
COc1ccc(-n2cc(CCO)cn2)cc1C(N)=O,15.35,-5.342,13.43
Cc1nccc(N2C[C@H](NC(=O)CNS(C)(=O)=O)[C@@H](C3CC3)C2)n1,12.26,4.009,9.429
CC(C)CN1CCC2(CC1)CN(C(=O)C(C)C)C2.O=C(O)C(F)(F)F,12.16,-,-
Cc1ccc(Cc2cnc(NC(=O)C3CNC(=O)N3)s2)cc1F (centres undefined),4.77,-,22.22
COC(=O)CCNC(=O)c1nnn(-c2ccc(F)cc2)c1C1CC1,-10.58,-28.83,12.64
CNS(=O)(=O)c1cc(C(=O)NC2COc3ccccc3C2)ccc1OC (centres undefined),-34.55,-38.85,0.2688
CC(=O)NCc1nnc2n1CCN(c1nc(C)nc3sccc13)CC2,-0.5674,5.13,11.54
CC(C)c1csc(C2CCCN(C(=O)c3ccc[nH]3)C2)n1 (centres undefined),14.81,24.46,9.712
COc1ccnc(CN2CC(=O)N(c3ccc(C)cc3)CC2C)c1OC (centres undefined),-1.91,-1.609,15.81
CC(C)n1cnnc1CN(C)C(=O)c1cc(COc2ccccc2)[nH]n1,-125,-,16.62
Cc1oc(C(=O)O)cc1S(=O)(=O)Nc1ccc(Br)cc1Cl,-12.74,-10.62,6.553
c1ccc(C2CCCN(c3cncc(-n4cccn4)n3)CC2)cc1 (centres undefined),6.437,42.47,38.46
O=C(NCC1(O)CCSC1)c1cccc(-n2cccn2)c1 (centres undefined),-0.2524,13.25,17.2
Cc1cc(C)n(CC(C)NC(=O)c2cc(CN3CCC(O)CC3)on2)n1 (centres undefined),-15.97,26.03,11.53
O=C(O)C(F)(F)F.[H][C@@]12CN(CC)CCO[C@]1([H])CN(C(=O)c1cocn1)C2,-38.58,-57.15,-
Cn1cc(C(=O)Nc2cccc(F)c2)ccc1=O,-37.55,-,6.015
Cc1ccc2nc(CN(C)Cc3n[nH]c4c3CCCCC4)[nH]c2c1C,106.9,34.18,5.415
O=S(=O)(NCCNc1cc(-n2cccn2)ncn1)c1cccs1,-0.2009,-21.67,0
O=C1[C@H]2CN(Cc3ccccc3)C[C@H]2CN1CCN1CCCC1,-,-,13.45
N#Cc1ccc(CS(=O)(=O)NC(=O)COc2ccc3c(c2)CCC3)cc1,9.939,-,8.229
COc1cc(N2CCOC(c3ccc(F)cc3)C2)ncn1 (centres undefined),3.087,18.88,11.67
O=C(O)C(F)(F)F.[H][C@]12CCN(Cc3csc(C)n3)[C@@]1([H])C[C@H](C(=O)N1CCOCC1)O2,-2.49,19.64,-
Cc1ccc(C(O)CNC(=O)Nc2cc(C)nn2C)cc1 (centres undefined),-6.079,-,18.95
CNCCCNC1CCN(c2ccc(-n3ccnc3)cc2)CC1,-13.61,-1.964,16.72
CC(C)=CCN1CCN(S(=O)(=O)c2cn(C)cn2)[C@H]2CS(=O)(=O)C[C@H]21,-,-,-6.774
Cc1nc(CN2CCC(C(=O)O)(n3ccc(C(C)C)n3)CC2)co1,-6.966,28.19,14.72
CC(C)NC(=O)N1CC[C@H]2[C@H]1CCN2c1ncccn1,-,-,18.49
C1CCCN(C2CCCN(Cc3noc(C4CC4)n3)C2)CC1 (centres undefined),20.13,-,30.37
COCCOc1ccc(NCc2cccc3cn[nH]c23)cn1,11.27,0.8667,4.348
CCNc1ncc(C(=O)NCCNc2ccncc2C)cn1,-1.605,-1.051,13.07
O=C1CC2(CCN(Cc3ccc(Cl)s3)C2)C(=O)N1 (centres undefined),-24.49,-13.47,12.47
CCc1nc(CN2CCCC(N(C)Cc3cnc(C)s3)C2)no1 (centres undefined),-7.856,9.645,6.404
N#Cc1ccc(NCC(=O)Nc2ncn(Cc3cccnc3)n2)cc1,-29.55,13.15,11.56
Cc1occc1C(=O)N1CCC2(CCCN(c3ncc(F)cn3)C2)C1.O=C(O)C(F)(F)F (centres undefined),13.6,15.91,-
CN(Cc1ccccn1)C1CC2(CCN(Cc3cccnc3)CC2)C1,-,-,8.711
CCOC(=O)CCCNc1nc(C(C)(C)C)nc2c1cnn2C,-15.93,30.86,9.722

Repeated from the top, 6 entries:

N#Cc1cccc(NC(=O)C2CCCN2c2nccs2)c1 (centres undefined) gave Mtb heat-shock: 7.382%; LdMetRS: 21.2%.
Fc1ccc(Cn2ncc3c2CN(c2ncccn2)C3)cc1 gave Mtb heat-shock: -41.76%; Mtb growth Cornell: 2.443%; LdMetRS: 15.64%.
Cc1ccc2c(c1)C(NC(=O)N(C)C)CC21CCN(CC2CC2)CC1 (centres undefined) gave LdMetRS: 14.52%.
c1ccc(-c2nnc3n2CCN(c2nc(C4CC4)ns2)C3)cc1 gave Mtb heat-shock: 1.919%; Mtb growth Cornell: -18.81%; LdMetRS: 25.82%.
O=C(CCc1cccs1)N1CCCC(n2ccnc2)C1 (centres undefined) gave Mtb heat-shock: -3.617%; Mtb growth Cornell: -2.698%; LdMetRS: 10.6%.
NC(=O)C(NC1CCN(Cc2ccc(F)cc2)CC1)c1ccccc1 (centres undefined) gave Mtb heat-shock: -149.1%; LdMetRS: 9.97%.